These results are taken from PubChem BioAssay AID1487 (National Center for Advancing Translational Sciences (NCATS), 2009).

The other results are listed elsewhere or left out. Shown are side measurements of this screen, not its main read-out; they come without a call. The list favours compounds with an active or inconclusive main result. The note in brackets gives the kind of curve behind each potency; many fits are weak.

This experiment can be described thus: qHTS Assay for Modulators of Lamin A Splicing. Conditions: HeLa LMNA splicing GFP/RFP minigene ratio, 48 h. In short, it runs like this:
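S3 HeLa cells stably expressing lamin A-EGFP splicing minigene plus DsRed2, 600 cells/well, 48 h compound exposure at 37C. Laser-scanning cytometry; analysed as GFP (500-530 nm)/RFP (575-640 nm) total intensity ratio; 0.5% DMSO vehicle.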
In general terms: qHTS replaces the single test concentration by a dilution series.

Setting [1] is: measured here: GFP splicing reporter channel.
[2] abbreviates: measured here: RFP viability control channel.

On to `Cc1cc(C)n(CC(C)NC(=O)c2cc(COc3c(F)cccc3F)on2)n1` (stereo unspecified), for which the AC50 under setting [1] is 0.0562 µM [falling, full curve, poor fit] and the concentration at half-maximal activity (AC50) under setting [2] was 0.316 µM [falling, full curve, poor fit]. As to `OC(c1ccc(OCc2ccccc2)cc1)c1nnc(-c2ccccc2)o1` (stereo unspecified), the AC50 under setting [2] was 2.82 µM [rising, single point]. `COc1ccc(CCC(=O)N2CCc3ccccc32)cc1`: the AC50 under setting [1] is 10 µM [rising, partial curve, poor fit]. Still for that read-out and setting: then `S=C(Nc1ccc(Cl)cc1)N1CCN(Cc2ccccc2)CC1`, with 8.91 µM [falling, partial curve, poor fit]. On to `CSc1nc(C)c(Cc2c(F)cccc2Cl)c(=O)[nH]1`, for which the AC50 under setting [2] is 0.0355 µM [falling, full curve, poor fit]. `CC(C)Nc1nc(C#N)nc(NC(C)C)n1`: the half-maximal activity concentration (AC50) is, setting by setting: under setting [1], 31.6 µM [rising, single point]; under setting [2], 35.5 µM [rising, single point]. As to `COc1ccc(C(=O)NCc2nnc(SCC(=O)N3CCCCC3)o2)cc1`, the AC50 by setting is: under setting [1], 10 µM [falling, partial curve]; under setting [2], 11.2 µM [falling, partial curve]. For the compound `Cc1ccc(-c2nc(N=Nc3ccc(O)cc3)n[nH]2)cc1`, the AC50 under setting [1] is 35.5 µM [falling, single point] and the AC50 under setting [2] is 2.82 µM [rising, single point]. With `Cn1cc(-c2nc3cnc(Oc4ccccc4)nc3n(C)c2=O)c2ccccc21`, the AC50 reads like this: under setting [1], 12.6 µM [falling, single point]; under setting [2], 15.8 µM [falling, single point]. With `O=C(Cc1ccccc1)c1c[nH]c(C(=O)NC2CCCC2)c1`, the AC50 by setting is: under setting [1], 6.31 µM [falling, partial curve]; under setting [2], 39.8 µM [falling, partial curve, poor fit]. With `CSc1ccc(CCNC(=O)CCn2c(=O)c3cccn3c3ccc(F)cc32)cc1`, the AC50 under setting [1] is 25.1 µM [rising, partial curve]. Consider `Cc1ccc(S(=O)(=O)Nc2nc(N)n(-c3ccccc3)n2)cc1`, for which, under setting [2], the AC50 was 0.158 µM [falling, full curve, poor fit]. As for `CC(CN(C)C)C(C)(O)Cc1ccc(Cl)cc1` (stereo unspecified), the AC50 under setting [1] is 0.00794 µM [falling, full curve, poor fit] and the AC50 under setting [2] was 35.5 µM [falling, single point].

Turning to `c1ccc2c(c1)CCCC2NC1=NCCC1` (stereo unspecified), the AC50 runs as follows: under setting [1], 15.8 µM [rising, partial curve]; under setting [2], 11.2 µM [rising, partial curve, poor fit]. In the case of `Cc1c(C(=O)O)sc(=S)n1CCOc1ccccc1`, the AC50 was 17.8 µM [rising, single point] under setting [1] and 22.4 µM [rising, single point] under setting [2]. Consider `Cc1noc(C)c1C(=O)N1CCCC(C(=O)c2ccc(Cl)cc2)C1` (stereo unspecified), for which the AC50 under setting [2] is 0.398 µM [falling, full curve, poor fit].

Consider `O=C(Nc1cccc(Cl)c1Cl)C1CC(=O)N(c2ccc(Br)cc2)C1` (stereo unspecified), for which the AC50 reads like this: under setting [1], 3.55 µM [rising, full curve]; under setting [2], 3.55 µM [rising, full curve].

As for `O=C(CN1CCC(C(=O)c2ccc3c(c2)OCCO3)CC1)NC1CCCC1`, the AC50 is 17.8 µM [rising, partial curve] under setting [1] and 22.4 µM [rising, single point] under setting [2]. Turning to `Cc1ccccc1Nc1nn2c(=O)c3ccccc3nc2s1`, the AC50 under setting [2] was 15.8 µM [rising, single point].

In the case of `CCOC(=O)N1CCN(c2ccc([N+](=O)[O-])cc2F)CC1C` (stereo unspecified), the AC50 was 5.01 µM [rising, single point] under setting [1] and 15.8 µM [rising, single point] under setting [2]. As to `Cc1cc(C)cc(NC(=S)Nc2ccc(Cl)c(Cl)c2)c1`, the AC50 under setting [2] was 0.0178 µM [rising, full curve, poor fit]. On the same count and under the same terms, then `O=C(/C=C/c1cccc(C(F)(F)F)c1)Nc1cccc(C(F)(F)F)c1`, with 22.4 µM [rising, single point]. Take `COc1ccc2[nH]cc(CCNc3cc(-c4ccccc4Cl)ncn3)c2c1`: the half-maximal activity concentration (AC50) is 12.6 µM [falling, single point] under setting [1] and 35.5 µM [falling, single point] under setting [2]. `Clc1cccc(-c2nc(NCCN3CCOCC3)c3ccccc3n2)c1`: the AC50 under setting [2] is 12.6 µM [rising, single point]. On the same count and under the same terms, with `CC(C)c1ccc(OCC(O)CN2CCN(c3ccccc3)CC2)cc1` (stereo unspecified) the figure was 35.5 µM [rising, single point].

As for `CC(C)(C)c1ccc(CN(Cc2ccco2)Cc2nnnn2C2CCCC2)cc1`, the concentration at half-maximal activity (AC50) under setting [2] is 35.5 µM [falling, single point].

Turning to `Cc1noc(C)c1COc1ccc(CC(=O)NC2CCCCCC2)cc1`, the AC50 was 0.02 µM [falling, full curve, poor fit] under setting [1] and 11.2 µM [falling, partial curve, poor fit] under setting [2]. For `Cc1nc(NCC2CCCO2)c2nnn(Cc3c(F)cccc3Cl)c2n1` (stereo unspecified), under setting [2], the AC50 is 35.5 µM [falling, single point]. In the case of `CC1(C)CC(=O)c2cc(OCC(=O)NCCCN3CCN(c4ccc(F)cc4)CC3)ccc2O1`, the AC50 is 12.6 µM [rising, partial curve, poor fit] under setting [1] and 17.8 µM [rising, partial curve] under setting [2]. On to `COc1ccc(C(=O)NC(=S)NNC(=O)Cc2cccs2)cc1`, for which the AC50 under setting [2] is 35.5 µM [rising, single point]. In the case of `CC(=O)NCCn1c(SCC#N)nc2ccccc2c1=O`, the AC50 under setting [2] is 0.355 µM [falling, full curve, poor fit]. Consider `COc1ccc(C2CC(C)(c3ccc(OC)cc3OC)Nc3ccccc3N2)c(OC)c1` (stereo unspecified), for which, under setting [1], the AC50 is 2 µM [rising, partial curve]. As for `S=C(NCc1ccccc1)NCc1cccc(CNC(=S)NCc2ccccc2)c1`, the half-maximal activity concentration (AC50) runs as follows: under setting [1], 15.8 µM [rising, single point]; under setting [2], 35.5 µM [rising, single point].

`CCOc1ccc(OCC)c(NC(=O)CN2CCN(c3cccc(C)c3)CC2)c1`: the AC50 by setting is: under setting [1], 12.6 µM [rising, single point]; under setting [2], 12.6 µM [rising, partial curve]. As to `Cc1nc2c(C(=O)N3CCN(c4ccccn4)CC3)cnn2c(C)c1Cc1cccc(Cl)c1`, the AC50 runs as follows: under setting [1], 35.5 µM [rising, single point]; under setting [2], 35.5 µM [rising, single point]. As for `CCN(CC(=O)Nc1ccccc1OC)CC(=O)Nc1ccccc1C(F)(F)F`, the AC50 under setting [2] was 11.2 µM [rising, partial curve, poor fit]. On the same count and under the same terms, then `Cc1cc(=O)[nH]c(N/N=C/c2ccccn2)n1`, with 3.98 µM [rising, full curve]. As for `CCOC(=O)c1ccccc1NC(=O)c1n[nH]c(=O)c2ccccc12`, the AC50 is, setting by setting: under setting [1], 14.1 µM [rising, single point]; under setting [2], 12.6 µM [rising, partial curve]. Consider `C/C(=N\NC(=S)NCc1ccccc1)c1ccccc1`, for which the AC50 reads like this: under setting [1], 14.1 µM [rising, single point]; under setting [2], 31.6 µM [rising, single point]. As for `O=c1c(-c2ccc(Cl)cc2)nc2cnc(N3CCNCC3)nc2n1Cc1cccs1`, the AC50 under setting [1] was 17.8 µM [falling, partial curve] and the AC50 under setting [2] was 12.6 µM [falling, partial curve]. `COC(=O)c1ccc(Cn2cnc3nc4c(cc3c2=O)CCCC4)cc1`: the AC50 under setting [1] is 0.891 µM [rising, full curve, poor fit] and the AC50 under setting [2] was 0.708 µM [rising, full curve]. Turning to `CC(=O)Nc1ccc(NC(=O)Cc2ccc(S(=O)(=O)N3CCCCC3)s2)cc1`, under setting [2], the AC50 was 35.5 µM [rising, single point]. Same read-out and setting: then `Cc1ccc(N(CC(=O)Nc2ccccc2-c2ccccc2)S(=O)(=O)c2ccccc2)c(C)c1`, with 22.4 µM [rising, partial curve]. Turning to `CC1CC(C)CN(CCOCCSc2ccccc2)C1` (stereo unspecified), under setting [1], the AC50 was 0.251 µM [falling, full curve, poor fit].

Consider `C=CCn1c(SCC(=O)Nc2cc(C)c(Cl)cc2OC)nnc1-c1ccco1`, for which, under setting [2], the AC50 is 12.6 µM [rising, single point]. The same measure, in the same setting: with `COc1ccccc1Oc1ccc(-c2cnc3ccccc3n2)cc1[N+](=O)[O-]` the figure was 0.0447 µM [falling, full curve]; with `COc1ccc(/C=N/NC(=O)c2cccc(Br)c2)cc1CSc1ccccn1`, 11.2 µM [rising, single point].

As to `Cc1ccc(C)c(CN2C(=O)C3(OCCCO3)c3ccccc32)c1`, under setting [1], the AC50 was 35.5 µM [rising, single point].

With `CCCc1[nH]nc2c1C(/C(C)=C/c1ccccc1)C(C#N)=C(N)O2` (stereo unspecified), the AC50 under setting [1] is 10 µM [rising, partial curve] and the AC50 under setting [2] is 12.6 µM [rising, single point]. For `CCOC(=O)N1CCN(C(=O)CN(Cc2ccc(Cl)cc2)S(=O)(=O)c2ccccc2)CC1`, the AC50 under setting [2] is 20 µM [rising, single point]. `CN(C)S(=O)(=O)c1cccc(NC(=O)c2ccc(OC(F)(F)F)cc2)c1`: under setting [2], the AC50 is 12.6 µM [rising, partial curve]. In the case of `CC1CN(c2nc3c(c(=O)n(Cc4ccc(Cl)cc4)c(=O)n3C)n2C)CC(C)O1` (stereo unspecified), the AC50 is 14.1 µM [rising, single point] under setting [1] and 22.4 µM [rising, single point] under setting [2].

Consider `CCOC(=O)c1oc2ccc(Br)cc2c1CSc1nnc(C)s1`, for which the AC50 is 12.6 µM [rising, single point] under setting [1] and 14.1 µM [rising, single point] under setting [2]. For the compound `O=C(CN1C(=O)S/C(=C\c2ccc(Cl)cc2)C1=O)NNC(=O)c1ccccc1O`, the AC50 by setting is: under setting [1], 35.5 µM [rising, single point]; under setting [2], 35.5 µM [rising, single point]. As to `O=C(COc1ccccc1)OCc1cc(=O)n2nc(C3CC3)sc2n1`, the AC50 under setting [2] is 0.0355 µM [falling, full curve, poor fit].

In general, AC50 refers to the midpoint of the concentration-response curve, whichever way the signal moves.
